This passage reports Kd results from patent US6713260B2, “Methods of identifying compounds that bind to target species under isothermal denaturing conditions” (Pharmacia & Upjohn Company, priority 1999, dated 2004).

Sequences of proteins named here, by UniProt entry; tags and fusion partners are left off. Residues count along the entry.
UniProt P08254, 100-264 limits assumed: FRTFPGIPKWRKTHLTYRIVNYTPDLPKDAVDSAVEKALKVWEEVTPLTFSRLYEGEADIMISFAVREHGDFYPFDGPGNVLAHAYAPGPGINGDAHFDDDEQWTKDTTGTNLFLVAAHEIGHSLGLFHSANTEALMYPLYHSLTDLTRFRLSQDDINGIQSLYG

Assay [1] addresses T1, Stromelysin (Homo sapiens, UniProt P08254).
T1 construct: made in house
Put plainly: Isothermal denaturation of stromelysin monitored by SYPRO Orange fluorescence. The conditions noted are these: 75° C., simple Langmuir binding isotherm. As for the experimental part: FIG. 10A. Time-Dependency of the isothermal denaturation of Stromelysin monitored by SYPRO Orange Fluorescence. The time-dependency of stromelysin isothermal denaturation at 75° C. with or without the addition of the competitive inhibitor PNU-143988 was followed by the increase in SYPRO Orange fluorescence as described in Examples. The data for the control reaction were analyzed using Equation 4, and those for the inhibited reactions with Equation 11. Representative data in the presence of 1.5 and 5 mM PNU-143988 are also shown. The solid lines represent the theoretical fits to the experimental data points.
FIGS. 11A-11B. Effect of PNU-143988 on the Initial Rates and the Rate Constants of the Isothermal Denaturation of Stromelysin Monitored by SYPRO Orange. The time-dependency of stromelysin isothermal denaturation at 75° C. with or without the addition of the competitive inhibitor PNU-143988 was followed by the increase in SYPRO Orange fluorescence as described in the Methods. […]
The time-dependencies of the fluorescence of extrinsic dyes during isothermal denaturation were monitored as follows. […] A dye baseline was recorded for 45 seconds and the denaturation reaction initiated by the addition of a small aliquot of the protein stock solution. […] In the latter experiments, the fluorescence increase associated with the addition of dye was always instantaneous.
Fluorescence. […]

The target of assay [2] is T1, Stromelysin. Put plainly: Stromelysin rate assay at 25° C. The following applies: read-out: Kd measured by a rate assay. Type of assay: biochemical. From the text:
Two parameters derived from the fluorescence kinetic curves measure the rate of denaturation, namely, the slope at the inflection point, and the first-order rate constant. The values of both parameters decreased in the presence of inhibitors in a saturable, dose-dependent manner, as shown in FIG. 11 for the case of fluorescence measurements. The concentration dependencies were consistent with a model where binding of the inhibitor results in a drastic decrease in the rate of denaturation.

With `CNC(=O)[C@H](Cc1ccc(O)cc1)NC(=O)Nc1nnc(S)s1` [PNU-143988], the Kd (usually the concentration at which binding is half-saturated) stood at 280 ± 20 nM on Stromelysin [1] (read-out: Kd from the initial rates), 350 ± 130 nM at Stromelysin [1] (read-out: Kd from the rate constants) and 400 nM on Stromelysin [2].
